Consider one sequence from publication PMC2660438.

Chains of the proteins cited; added tags and fusions are not shown.
UniProt Q04206, whole entry: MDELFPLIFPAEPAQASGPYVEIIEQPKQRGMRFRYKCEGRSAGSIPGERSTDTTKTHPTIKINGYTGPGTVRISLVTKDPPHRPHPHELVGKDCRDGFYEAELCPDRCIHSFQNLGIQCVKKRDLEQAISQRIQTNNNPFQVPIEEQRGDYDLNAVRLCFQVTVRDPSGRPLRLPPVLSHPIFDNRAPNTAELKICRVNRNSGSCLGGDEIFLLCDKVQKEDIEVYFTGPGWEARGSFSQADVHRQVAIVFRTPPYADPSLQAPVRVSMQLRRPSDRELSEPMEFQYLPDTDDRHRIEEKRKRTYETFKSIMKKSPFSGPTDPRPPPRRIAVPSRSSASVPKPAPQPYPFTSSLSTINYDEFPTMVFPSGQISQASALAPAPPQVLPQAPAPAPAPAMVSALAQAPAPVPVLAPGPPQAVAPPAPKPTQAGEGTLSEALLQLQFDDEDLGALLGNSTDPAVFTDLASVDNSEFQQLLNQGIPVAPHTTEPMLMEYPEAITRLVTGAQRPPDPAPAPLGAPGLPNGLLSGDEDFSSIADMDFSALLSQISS

For at least one entry, the source does not settle the construct or the ends of the probe. At least one result comes from cells or an extract, where the contact may be indirect.

The target in this series is NF-kB p65 (RelA) in TNFa-treated A549 nuclear extract (UniProt Q04206). Nature of the series: EMSA, p65 antibody supershift. Particulars: TNFa 15 min extract, 50-fold self competitor competes; 2 ul nuclear extract with 1 ng 32P probe, 15 min at 37 C; 5% native PAGE; antibody preincubation 30 min at 37 C; protein in an extract; label: 32P end label (unlabeled as self competitor). Background: In EMSA bound probe runs differently from free probe, usually more slowly.

“GGGCCCGGGAAATTCCCCGGCG (double strand) [Optn. NF-kB]”: the binding result is “binds”.
